PubChem BioAssay AID1508600 (Functional Genomics Laboratory (NCATS/FGL), 2020)
In all, about 53,000 sequences went through this assay and about 3,700 (7%) were called active.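 Rule for the calls: active = gene knockdowns whose robust z-score for IL-1 alpha signal is at least 2 or at most -2, so actives lie on both sides; inactive = the rest.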 The list shows a part of the results.

assay: Components of the Cytosolic LPS Sensing Pathway: Gene Identification via Genome-wide siRNA Screen; settings: RAW264.7 macrophages, IL-1a HTRF, actives lie on both sides, screened at 100 nM (by protocol), cells primed 5 h with Pam3CSK4 first;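 note: robust z of the log signal after scaling to non-targeting control siRNA wells of the plate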
How it was run: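 IL-1a HTRF of supernatants after 24 hour LipidA transfection of Pam3CSK4-primed (5 hours) RAW264.7 cells, 48h post-siRNA transfection (100 nM). Scores: percent of plate negative-control median, then log-based robust z-score.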

Row | Sequence | z-score
1 | GCACAAAUUUGGUAGUGUUTT against Nup50 | inactive: -1.53
2 | CCUGGCUAUUAGAUCGCGUTT against Kif12 | inactive: 1.19
3 | GGAGCUCAAAACCUCCAAGTT against Osr1 | inactive: -0.42
4 | GCUGUUGGAUCCUUUCCUATT against Slc25a26 | inactive: -1.51
5 | GGAAUUUGUGGAAACAGGATT against Tnfaip3 | inactive: -0.441
6 | CCAGCUUACCUUUGAAAAATT against Dusp12 | inactive: 1.29
7 | GGUUUACCCAAAGAACUCGTT against Snap29 | inactive: 0.157
8 | CCACCUUGUUGAGUGGCACTT against Smarcd3 | inactive: -0.177
9 | GCUGGAUUCUGGUAAAUGGTT against Eif5a | inactive: -0.836
10 | CCUGGUACUGAUUACUCCATT against Adam20 | inactive: 0.447
11 | CGAAAAAAAUCCAAGUCAATT against Akap12 | inactive: -0.28
12 | GGUAAUUAAAACCAUGGAGTT against Rex1bd | inactive: -0.0412
13 | CCUUUCGAUGAUAAUCGAATT against Olfr971 | inactive: 1.1
14 | GGCUAUGACUCGAUUUCUATT against Msh5 | inactive: 0.875
15 | GGACGUAUACAUUCAAUCUTT against Ubash3a | inactive: 0.2
16 | GGAGGCUGAAAACAUCGUGTT against Sncg | inactive: -0.49
17 | GGAUCUGGAGCAGCUUCAGTT against Veph1 | inactive: -0.188
18 | GGGAUUUCGCCAUUGGUGUTT against Col15a1 | inactive: -0.312
19 | GGAGAAAGUCAAGACCCUCTT against Jund | inactive: 0.473
20 | CCGCAUAAGAGAAUCAAGGTT against 1700012B09Rik | inactive: -0.0578
21 | CGCGGAAGUUUGAAGUCCUTT against Tusc1 | inactive: -0.427
22 | CGUGCCAGACCUAUAGCUUTT against Mlxip | inactive: -0.226
23 | GGCAGAUCUGGAGAACCAGTT against Rras | inactive: -1.6
24 | GUACUUUCUUAUUCUCCAATT against Tas2r123 | inactive: -0.497
25 | GCUAGCCAAUUGUGUUUGATT against Gjb3 | inactive: 1.12
26 | GGUCUCAAAGAAAUCUGUATT against Bcap29 | active: -2.4
27 | UCUUUGGGUAGUUUAGGUATT against Olfr1310 | inactive: 0.0559
28 | GGUUACGAAGAUUAAUGUGTT against Crk | inactive: 1.27
29 | GGCCUAUCCAUAAUUUAUCTT against Mcm8 | inactive: 0.828

In a second layout: results already given.
Row	Sequence	z-score
19	GGAGAAAGUCAAGACCCUCTT against Jund	inactive: 0.473
20	CCGCAUAAGAGAAUCAAGGTT against 1700012B09Rik	inactive: -0.0578
